Data: the supplement of paper PMC10849652
The other results are listed elsewhere or left out.

Sequences of proteins named here, by UniProt entry; tags and fusion partners are left off. A change or cut given only in a name is not applied to a line headed by its entry.
UniProt Q9H8V3: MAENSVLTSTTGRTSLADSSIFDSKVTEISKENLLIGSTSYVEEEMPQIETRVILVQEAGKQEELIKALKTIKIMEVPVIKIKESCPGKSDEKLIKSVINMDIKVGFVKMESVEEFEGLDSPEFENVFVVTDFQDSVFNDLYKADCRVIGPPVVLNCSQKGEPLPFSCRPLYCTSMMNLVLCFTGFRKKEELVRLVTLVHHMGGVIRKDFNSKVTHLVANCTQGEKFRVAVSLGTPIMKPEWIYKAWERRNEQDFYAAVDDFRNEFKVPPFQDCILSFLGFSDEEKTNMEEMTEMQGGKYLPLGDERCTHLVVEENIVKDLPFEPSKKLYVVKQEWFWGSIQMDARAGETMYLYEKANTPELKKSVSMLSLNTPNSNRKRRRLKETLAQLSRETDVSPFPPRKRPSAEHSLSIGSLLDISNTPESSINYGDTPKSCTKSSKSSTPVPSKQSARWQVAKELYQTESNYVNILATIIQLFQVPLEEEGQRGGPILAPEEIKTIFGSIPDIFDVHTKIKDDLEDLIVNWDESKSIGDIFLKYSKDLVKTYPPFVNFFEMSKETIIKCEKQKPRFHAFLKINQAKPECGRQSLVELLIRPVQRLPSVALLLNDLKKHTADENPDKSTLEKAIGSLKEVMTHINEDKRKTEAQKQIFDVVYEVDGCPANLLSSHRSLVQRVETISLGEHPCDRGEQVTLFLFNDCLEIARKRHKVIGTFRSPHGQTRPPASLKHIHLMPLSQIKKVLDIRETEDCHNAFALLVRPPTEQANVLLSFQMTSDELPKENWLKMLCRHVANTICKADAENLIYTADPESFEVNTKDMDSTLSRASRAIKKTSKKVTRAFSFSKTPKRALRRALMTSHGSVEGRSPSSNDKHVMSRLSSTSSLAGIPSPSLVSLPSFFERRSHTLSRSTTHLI
UniProt P50570: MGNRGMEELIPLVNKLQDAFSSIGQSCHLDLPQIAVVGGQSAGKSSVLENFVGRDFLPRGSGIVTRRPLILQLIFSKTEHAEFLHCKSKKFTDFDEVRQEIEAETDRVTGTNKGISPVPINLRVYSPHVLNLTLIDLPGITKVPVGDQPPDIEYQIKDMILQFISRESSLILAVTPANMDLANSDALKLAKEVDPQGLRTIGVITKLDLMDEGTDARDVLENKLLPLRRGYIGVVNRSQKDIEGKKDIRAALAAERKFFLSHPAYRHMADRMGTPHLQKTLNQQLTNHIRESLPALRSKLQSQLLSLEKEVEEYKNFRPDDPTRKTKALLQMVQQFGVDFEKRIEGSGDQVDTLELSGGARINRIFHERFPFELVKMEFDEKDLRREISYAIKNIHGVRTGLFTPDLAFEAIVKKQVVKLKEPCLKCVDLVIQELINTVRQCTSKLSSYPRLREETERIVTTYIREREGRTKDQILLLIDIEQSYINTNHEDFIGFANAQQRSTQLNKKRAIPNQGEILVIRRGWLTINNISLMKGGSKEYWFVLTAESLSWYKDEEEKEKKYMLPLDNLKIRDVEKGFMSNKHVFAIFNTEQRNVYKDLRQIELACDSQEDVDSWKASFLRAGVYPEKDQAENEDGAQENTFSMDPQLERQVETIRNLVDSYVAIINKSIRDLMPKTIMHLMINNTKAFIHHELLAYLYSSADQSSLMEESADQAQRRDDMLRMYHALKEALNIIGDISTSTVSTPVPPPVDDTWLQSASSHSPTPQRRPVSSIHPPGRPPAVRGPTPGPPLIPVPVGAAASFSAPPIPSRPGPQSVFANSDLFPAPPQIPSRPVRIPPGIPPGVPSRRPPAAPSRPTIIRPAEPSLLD
UniProt Q99956: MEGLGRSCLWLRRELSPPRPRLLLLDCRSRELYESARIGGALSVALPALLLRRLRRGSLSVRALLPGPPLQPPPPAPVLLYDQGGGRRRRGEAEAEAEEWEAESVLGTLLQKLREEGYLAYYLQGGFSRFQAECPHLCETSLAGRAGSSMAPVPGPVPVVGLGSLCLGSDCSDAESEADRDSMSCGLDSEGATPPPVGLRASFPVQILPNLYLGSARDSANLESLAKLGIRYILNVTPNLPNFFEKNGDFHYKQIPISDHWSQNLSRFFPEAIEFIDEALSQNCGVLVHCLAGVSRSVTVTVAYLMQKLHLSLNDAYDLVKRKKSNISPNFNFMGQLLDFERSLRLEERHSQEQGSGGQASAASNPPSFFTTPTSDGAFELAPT
UniProt Q96LL9: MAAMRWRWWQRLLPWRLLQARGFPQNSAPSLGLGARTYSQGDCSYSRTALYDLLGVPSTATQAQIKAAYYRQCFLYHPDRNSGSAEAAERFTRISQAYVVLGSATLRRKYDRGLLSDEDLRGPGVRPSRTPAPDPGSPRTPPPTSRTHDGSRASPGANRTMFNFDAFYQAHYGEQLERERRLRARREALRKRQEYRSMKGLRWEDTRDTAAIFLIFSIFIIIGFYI
UniProt Q9NRR4: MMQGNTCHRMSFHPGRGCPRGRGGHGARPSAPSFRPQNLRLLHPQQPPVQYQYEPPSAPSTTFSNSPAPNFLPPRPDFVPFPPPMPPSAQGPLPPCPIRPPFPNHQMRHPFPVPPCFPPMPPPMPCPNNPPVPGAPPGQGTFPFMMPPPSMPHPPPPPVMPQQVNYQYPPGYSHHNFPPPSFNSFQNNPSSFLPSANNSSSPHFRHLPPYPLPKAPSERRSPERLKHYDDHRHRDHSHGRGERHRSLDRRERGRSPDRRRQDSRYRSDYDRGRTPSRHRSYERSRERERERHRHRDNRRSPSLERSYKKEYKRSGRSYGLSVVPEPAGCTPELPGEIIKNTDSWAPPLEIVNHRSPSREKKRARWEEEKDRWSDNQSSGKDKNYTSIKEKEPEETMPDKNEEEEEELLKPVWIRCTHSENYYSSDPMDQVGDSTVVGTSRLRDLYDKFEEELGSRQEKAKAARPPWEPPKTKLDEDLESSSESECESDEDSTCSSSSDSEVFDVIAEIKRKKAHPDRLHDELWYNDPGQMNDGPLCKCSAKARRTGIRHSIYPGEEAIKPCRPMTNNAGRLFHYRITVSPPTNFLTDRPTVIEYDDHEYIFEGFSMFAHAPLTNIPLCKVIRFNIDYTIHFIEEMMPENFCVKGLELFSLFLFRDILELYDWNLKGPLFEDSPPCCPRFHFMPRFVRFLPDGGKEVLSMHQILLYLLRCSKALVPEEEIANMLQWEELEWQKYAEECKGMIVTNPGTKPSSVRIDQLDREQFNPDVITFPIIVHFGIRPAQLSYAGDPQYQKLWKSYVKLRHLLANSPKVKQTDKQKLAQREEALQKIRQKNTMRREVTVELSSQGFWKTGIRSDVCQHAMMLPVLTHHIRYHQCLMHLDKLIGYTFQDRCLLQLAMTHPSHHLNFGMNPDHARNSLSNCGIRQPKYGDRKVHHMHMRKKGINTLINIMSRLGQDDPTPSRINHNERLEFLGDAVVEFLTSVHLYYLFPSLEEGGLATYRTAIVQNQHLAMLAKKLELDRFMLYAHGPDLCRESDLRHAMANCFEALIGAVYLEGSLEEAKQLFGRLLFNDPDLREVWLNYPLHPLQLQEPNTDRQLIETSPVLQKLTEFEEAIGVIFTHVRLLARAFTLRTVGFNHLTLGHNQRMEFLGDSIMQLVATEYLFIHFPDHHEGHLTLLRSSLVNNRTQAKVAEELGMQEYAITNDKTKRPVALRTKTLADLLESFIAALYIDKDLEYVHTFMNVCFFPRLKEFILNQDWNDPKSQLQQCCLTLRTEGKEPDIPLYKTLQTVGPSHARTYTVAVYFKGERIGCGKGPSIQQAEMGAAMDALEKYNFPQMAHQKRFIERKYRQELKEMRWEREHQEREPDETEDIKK
UniProt P51808: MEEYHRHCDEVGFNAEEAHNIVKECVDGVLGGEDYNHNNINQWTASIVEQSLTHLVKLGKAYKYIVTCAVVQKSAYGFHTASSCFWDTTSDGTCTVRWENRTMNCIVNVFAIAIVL
UniProt Q6P1R4: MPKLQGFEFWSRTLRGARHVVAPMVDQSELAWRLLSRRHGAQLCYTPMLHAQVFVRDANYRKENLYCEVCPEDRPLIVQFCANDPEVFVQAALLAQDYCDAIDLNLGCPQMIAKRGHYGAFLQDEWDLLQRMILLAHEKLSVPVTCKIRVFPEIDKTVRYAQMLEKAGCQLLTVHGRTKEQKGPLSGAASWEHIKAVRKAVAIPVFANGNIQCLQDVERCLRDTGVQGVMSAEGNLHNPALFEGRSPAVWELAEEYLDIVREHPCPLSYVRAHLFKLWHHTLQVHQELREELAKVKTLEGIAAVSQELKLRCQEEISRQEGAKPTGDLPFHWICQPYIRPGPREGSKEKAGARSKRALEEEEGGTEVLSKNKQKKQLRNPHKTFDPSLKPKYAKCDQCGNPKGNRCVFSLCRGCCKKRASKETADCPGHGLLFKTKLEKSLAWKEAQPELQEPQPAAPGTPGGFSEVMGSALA
UniProt Q96BY6: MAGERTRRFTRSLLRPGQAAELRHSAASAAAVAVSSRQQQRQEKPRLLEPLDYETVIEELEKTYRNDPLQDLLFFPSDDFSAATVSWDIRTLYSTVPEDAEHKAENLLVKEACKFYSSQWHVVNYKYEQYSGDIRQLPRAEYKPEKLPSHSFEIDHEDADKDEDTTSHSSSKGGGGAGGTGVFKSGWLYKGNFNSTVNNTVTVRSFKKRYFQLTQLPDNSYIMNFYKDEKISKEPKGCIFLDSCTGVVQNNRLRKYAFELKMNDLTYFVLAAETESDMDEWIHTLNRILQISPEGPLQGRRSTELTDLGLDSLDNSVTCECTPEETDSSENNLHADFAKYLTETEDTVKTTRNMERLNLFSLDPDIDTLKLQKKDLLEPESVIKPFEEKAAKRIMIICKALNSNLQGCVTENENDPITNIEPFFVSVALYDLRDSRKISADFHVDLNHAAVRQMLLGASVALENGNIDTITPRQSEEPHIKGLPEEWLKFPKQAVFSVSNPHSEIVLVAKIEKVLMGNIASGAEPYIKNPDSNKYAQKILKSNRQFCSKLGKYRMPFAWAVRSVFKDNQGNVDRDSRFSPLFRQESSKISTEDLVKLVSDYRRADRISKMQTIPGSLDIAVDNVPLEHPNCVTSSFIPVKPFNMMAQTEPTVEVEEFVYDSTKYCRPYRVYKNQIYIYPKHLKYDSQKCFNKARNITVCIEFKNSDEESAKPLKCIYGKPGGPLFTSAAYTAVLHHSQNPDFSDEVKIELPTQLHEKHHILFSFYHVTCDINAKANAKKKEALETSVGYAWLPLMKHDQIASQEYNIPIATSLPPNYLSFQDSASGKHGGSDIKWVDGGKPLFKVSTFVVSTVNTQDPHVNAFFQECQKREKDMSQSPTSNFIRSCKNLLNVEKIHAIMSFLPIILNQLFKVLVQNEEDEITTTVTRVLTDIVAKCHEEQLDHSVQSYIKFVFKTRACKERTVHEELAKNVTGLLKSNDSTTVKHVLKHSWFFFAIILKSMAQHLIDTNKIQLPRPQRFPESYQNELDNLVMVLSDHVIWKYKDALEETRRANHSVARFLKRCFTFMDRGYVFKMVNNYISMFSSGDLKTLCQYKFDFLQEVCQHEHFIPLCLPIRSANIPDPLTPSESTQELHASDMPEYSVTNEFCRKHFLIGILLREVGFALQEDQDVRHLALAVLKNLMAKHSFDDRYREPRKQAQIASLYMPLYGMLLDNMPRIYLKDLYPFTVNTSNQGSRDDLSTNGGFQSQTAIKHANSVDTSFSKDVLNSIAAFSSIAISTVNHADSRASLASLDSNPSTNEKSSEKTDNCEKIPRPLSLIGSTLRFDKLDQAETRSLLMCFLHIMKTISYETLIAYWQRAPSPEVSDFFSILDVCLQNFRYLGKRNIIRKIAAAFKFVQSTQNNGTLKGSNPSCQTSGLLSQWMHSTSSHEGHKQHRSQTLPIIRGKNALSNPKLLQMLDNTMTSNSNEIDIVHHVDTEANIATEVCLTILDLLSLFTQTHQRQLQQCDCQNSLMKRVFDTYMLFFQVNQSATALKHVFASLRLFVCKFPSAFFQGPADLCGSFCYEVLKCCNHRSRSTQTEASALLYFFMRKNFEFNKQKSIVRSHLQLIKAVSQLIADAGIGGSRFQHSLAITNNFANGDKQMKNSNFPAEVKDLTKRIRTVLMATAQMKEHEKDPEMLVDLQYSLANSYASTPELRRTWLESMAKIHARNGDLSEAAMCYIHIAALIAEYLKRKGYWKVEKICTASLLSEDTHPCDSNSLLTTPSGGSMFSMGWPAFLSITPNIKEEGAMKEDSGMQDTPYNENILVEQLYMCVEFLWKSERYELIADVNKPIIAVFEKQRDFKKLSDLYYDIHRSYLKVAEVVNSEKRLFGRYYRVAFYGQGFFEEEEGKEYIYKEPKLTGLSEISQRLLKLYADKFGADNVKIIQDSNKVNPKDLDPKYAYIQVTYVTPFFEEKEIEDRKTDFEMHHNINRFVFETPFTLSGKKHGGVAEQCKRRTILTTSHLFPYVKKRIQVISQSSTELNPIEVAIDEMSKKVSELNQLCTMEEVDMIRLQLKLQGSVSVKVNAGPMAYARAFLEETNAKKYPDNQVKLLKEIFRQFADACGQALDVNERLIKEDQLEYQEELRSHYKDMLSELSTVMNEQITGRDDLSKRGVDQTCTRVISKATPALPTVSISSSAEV

Compound: NC(=O)Nc1cc(-c2cccc(F)c2)sc1C(=O)N[C@H]1CCCNC1
Assay: log2 fold change, soluble protein after heating vs DMSO (PISA); higher = thermal stabilisation; K562 cells, 10 uM, 30 min; active = over 0.2 and 3.5 SD of the protein, either way, in both replicates (recomputed)
Outline: (§1)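 Quantification of soluble protein used TMTpro 16plex LC-MS/MS, with channel sums equalised. Samples were the supernatant after 21,000xg for 90 min of pooled aliquots from K562 cells (2×10^6 cells/mL) treated with 10 μM compound for 30 min, heated for 3 min over 48°C-58°C, and extracted in PBS with 0.5% NP-40 at 4°C. Values, from duplicates, describe thermal stability against control samples on a log2 fold-change scale.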

log2 fold change, inactive:
DNAJC15 (UniProt Q9Y5T4) -0.002
ECT2 isoform 3 (UniProt Q9H8V3) 0.246
DOCK11, A0A0J9YW64 -0.075
EDRF1 (UniProt Q3B7T1) -0.062
DNM2 isoform 4 (UniProt P50570) -0.033
DUSP9 (UniProt Q99956) -0.128
DUSP12 (UniProt V9GYV5) 0.142

Compound: NC(=O)c1cnc(N[C@@H]2CCCC[C@@H]2N)nc1Nc1cccc(-n2nccn2)c1
Assay: as above
Outline: as §1

log2 fold change, inactive:
DRAP1 (UniProt E9PQX9) -0.012
DPCD (UniProt Q9BVM2) -0.224
DUSP14 (UniProt O95147) -0.007
ECM1 isoform 2 (UniProt Q16610) 0.332
DNAJC30 (UniProt Q96LL9) 0.067
DPY19L2 (UniProt Q6NUT2) 0.088
DROSHA (UniProt Q9NRR4) 0.004
DOLPP1 (UniProt Q86YN1) -0.102
DXO (UniProt O77932) 0.044
DNASE1L1 (UniProt P49184) -0.067
DYNLT3 (UniProt P51808) 0.046
DNAL1 (UniProt Q4LDG9) 0.035
DNPH1 (UniProt H0Y8X4) -0.023

Compound: NC1(c2ccc(-c3nc4ccn5c(=O)[nH]nc5c4cc3-c3ccccc3)cc2)CCC1
Assay: as above
Outline: as §1

log2 fold change, inactive:
DRAP1 (UniProt E9PQX9) 0.104
DOCK11, A0A0J9YW64 -0.112
DUS1L (UniProt Q6P1R4) -0.132
DUSP14 (UniProt O95147) -0.226
ECM1 isoform 2 (UniProt Q16610) 0.213
EDRF1 (UniProt Q3B7T1) -0.044
DNM2 isoform 4 (UniProt P50570) -0.318
DNAJC14 (UniProt Q6Y2X3) -0.036
DNAJB14 (UniProt H7C494) -0.046
DPY19L2 (UniProt Q6NUT2) 0.123
DOCK10 (UniProt Q96BY6) -0.743
DOLPP1 (UniProt Q86YN1) -0.053
DXO (UniProt O77932) -0.147
DOP1A (UniProt Q5JWR5) 0.106
DNPH1 (UniProt H0Y8X4) -0.048
